Assay results: PubChem BioAssay AID504834 (National Center for Advancing Translational Sciences (NCATS), 2011)
The campaign covered roughly 320,000 compounds. About 22,000 (6.9%) were called active. Inconclusive results, whose numbers are uncertain, are shown with a selection of clear calls. Calls follow the shape of the dose curve; as a rule, active = well fitted inhibition curve with a large enough effect; inconclusive = small, poorly fitted or top-dose-only effect, or another doubt; inactive = no such curve, though single readings can be large or run the other way. Potencies beside an inconclusive call are fits to weak or partial responses and may not hold up.
% is scaled to controls: 0 for no effect and ±100 for the full control effect; potency is read from the fitted curve at half-maximal effect.

Test: Primary qHTS for delayed death inhibitors of the malarial parasite plastid, 96 hour incubation
Details: P. falciparum luciferase reporter growth; series mostly up to 28.7 µM
Procedure, shortened: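 Parasite growth measured via integrated firefly luciferase reporter in P. falciparum. Infected erythrocytes at 2% hematocrit, 0.05% parasitemia final were treated 96 hours at 37 C under 5% CO2, and luminescence was read.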
With Cc1cccc(-n2cc(CN3CCN(c4ccccn4)CC3)c(-c3cccc(F)c3)n2)c1 the Potency was inconclusive: 8.28 µM [inhibitor, partial curve].
In the case of O=C(CN1CCNCC1)Nc1ccccc1Cl, the Potency is reported as inconclusive: 6.57 µM [inhibitor, partial curve, poor fit].
For O=C(O)c1cnn(-c2nc(-c3ccc(F)cc3)cs2)c1C(F)(F)F, the activity change, negative = inhibition was inactive: -32.4% [at 1.15 µM].
With CC(C)n1cc(NC(=O)COc2ccccc2Cl)cn1 the Potency was inconclusive: 0.928 µM [inhibitor, full curve, poor fit].
In the case of Cc1cccc(NC(=S)NC2CCCC2)n1, the Potency is reported as “inactive”.
With CC(=O)Nc1ccc(N=Cc2c(O)c(C(=O)Nc3ccccc3)cc3ccccc23)cc1 the Potency was “inactive”.
For CC(C)N1CCC(N2CCN(CC#Cc3ccccc3)CC2CCO)CC1 (configuration not stated), the Potency was inconclusive: 18.5 µM [inhibitor, single point].
For O=S(=O)(C=C(c1ccccc1)c1ccccc1)c1ccccc1, the Potency was inconclusive: 20.8 µM [inhibitor, single point].
In the case of Oc1ccc(Cl)cc1CNCc1cccc2ccccc12, the Potency is reported as active: 0.928 µM.
With CCc1ccc(NP(=O)(Oc2ccccc2F)Oc2ccccc2F)cc1 the Potency was inconclusive: 8.28 µM [inhibitor, single point].
For O=C1CC(N(O)C2CC(=O)N(Cc3ccccc3)C2=O)C(=O)N1Cc1ccccc1 (configuration not stated), the Potency was inconclusive: 10.4 µM [inhibitor, single point].
For CCOC(=O)c1sc2ncn(/N=C/c3cccnc3)c(=O)c2c1C, the Potency was inconclusive: 9.28 µM [inhibitor, partial curve, poor fit].
In the case of [O-]c1n[n+](-c2ccc(Cl)cc2)cc2ccccc12, the Potency is reported as inconclusive: 0.0928 µM [inhibitor, full curve, poor fit].
In the case of C/C(=N\NC(=O)c1ccc(CSc2nncn2C)cc1)c1ccc(Cl)cc1, the Potency is reported as inconclusive: 11.7 µM [inhibitor, single point].
For COc1ccc(C2N(c3cc(C)on3)C(=O)C3CCCN32)cc1OC (configuration not stated), the Potency was inconclusive: 14.7 µM [inhibitor, partial curve, poor fit].
In the case of CCCC1CCC(=C(C#N)C(N)=O)CC1 (configuration not stated), the Potency is reported as “inactive”.
For O=C(O)c1ccccc1NC(=O)c1cc2ccccc2oc1=O, the Potency was inconclusive: 18.5 µM [inhibitor, partial curve, poor fit].
With O=c1cc(CO)oc(CN2CCN(c3ccccc3)CC2)c1O the Potency was “inactive”.
In the case of COc1cccc(N2CCN(S(=O)(=O)c3ccc4c(c3)oc(=O)n4C)CC2)c1, the Potency is reported as inconclusive: 10.4 µM [inhibitor, single point].
For CCNC(=O)NC(=O)C(C)Oc1ccc(C(=O)OC)cc1 (configuration not stated), the Potency was inconclusive: 0.0329 µM [inhibitor, full curve, poor fit].
For Cc1ccc(COn2nnc3ccc(S(=O)(=O)N4CCOCC4)cc32)cc1, the Potency was inconclusive: 2.62 µM [inhibitor, full curve, poor fit].
For Cc1nc(CN2CCN(Cc3nc(C(c4ccccc4)c4ccccc4)no3)CC2)cs1, the Potency was inconclusive: 10.4 µM [inhibitor, single point].
With CCOc1cccc(CN2CCCC(C(=O)c3cccc(C(F)(F)F)c3)C2)c1O (configuration not stated) the Potency was inconclusive: 9.28 µM [inhibitor, single point].
For COc1cc(C(=O)Nc2nnc(S(=O)(=O)N3CCCCCC3)s2)cc(OC)c1OC, the Potency was “inactive”.
In the case of CN(C)c1ccc(/C=C2\N=C(c3ccc(Cl)c([N+](=O)[O-])c3)NC2=O)cc1, the Potency is reported as “inactive”.
In the case of CC(Oc1ccc(Cl)cc1Cl)C(=O)NN=C1CCN(C)CC1 (configuration not stated), the Potency is reported as inconclusive: 9.28 µM [inhibitor, single point].
For CCN1C=CC2=C(C#N)C(N)C(C#N)(C#N)C(c3ccccc3C(F)(F)F)C2C1 (configuration not stated), the Potency was inconclusive: 13.1 µM [inhibitor, partial curve, poor fit].
For CC(C)(C)NC(=O)NC(=O)CSc1ccc(S(=O)(=O)N2CCOCC2)cn1, the Potency was inconclusive: 8.28 µM [inhibitor, partial curve].
For Cc1ccc(OCCC(=O)OCC(=O)NCCc2ccccc2)cc1, the Potency was “inactive”.
In the case of Cc1onc(-c2ccccc2Cl)c1C(=O)NC(C)c1ccccc1 (configuration not stated), the Potency is reported as active: 13.1 µM.
With COc1ccc2c(c1)C(C1C(=O)CCCC1=O)c1ccccc1O2 (configuration not stated) the Potency was inconclusive: 1.65 µM [inhibitor, full curve].
In the case of C/C(CC(=O)NC12CC3CC(CC(C3)C1)C2)=N\NC(=O)c1cnccn1, the Potency is reported as inconclusive: 1.65 µM [inhibitor, full curve].
In the case of CCn1c(=NC(=O)c2ccc(S(=O)(=O)N(C)C)cc2)sc2cccc(OC)c21, the Potency is reported as inconclusive: 1.85 µM [inhibitor, full curve, poor fit].
With CCCCC1=CC2=C(c3ccco3)C(=O)C(C)(OC(=O)c3ccc(OC)cc3)C(=O)C2=CN1CCCN(CC)CC (configuration not stated) the Potency was active: 14.7 µM.
With N/C(=N\OC(=O)c1ccc(Cl)c([N+](=O)[O-])c1)c1ccccn1 the Potency was inconclusive: 1.85 µM [inhibitor, full curve, poor fit].
With O=C1N(Nc2ccccc2)C(c2ccc(Br)cc2)C12CCCCC2 (configuration not stated) the Potency was inconclusive: 11.7 µM [inhibitor, single point].
In the case of COc1ccccc1NC(=O)Nc1nc(CC(=O)Nc2ccc(F)c(F)c2)cs1, the Potency is reported as inconclusive: 10.4 µM [inhibitor, single point].
In the case of Cc1ccc(C2CC(C(F)F)n3ncc(C(=O)Nc4c(C)nn(Cc5c(F)cccc5Cl)c4C)c3N2)cc1 (configuration not stated), the Potency is reported as inconclusive: 11.7 µM [inhibitor, single point].
With COc1cccc(NC(=O)CN2C(=O)NC(C)(CC(C)C)C2=O)c1 (configuration not stated) the Potency was “inactive”.
With O=C(CN(c1cccc([N+](=O)[O-])c1)S(=O)(=O)c1ccccc1)N(Cc1ccccc1)Cc1ccccc1 the Potency was “inactive”.
With CCOC(=O)N1CCC(NC(=O)c2cc3c(-c4ccccc4F)nn(C)c3s2)CC1 the Potency was inconclusive: 1.85 µM [inhibitor, single point].
In the case of C=CCn1c(CSCc2ccc(C)cc2)nnc1SCC(=O)NCc1ccccc1, the Potency is reported as inconclusive: 0.0738 µM [inhibitor, full curve, poor fit].
